Reference: the supplement of paper PMC10331698
± gives the standard deviation of the averaged measurements. Small differences around the control level are noise.

Assays:
Experiment in all cases: level (log10 ratio to DMSO vehicle control); higher = higher biomarker level / cell amount than vehicle control
[1] = compound: C=C(C)C(=O)OCC(F)(F)C(F)(F)C(F)(F)F [2,2,3,3,4,4,4-Heptafluorobutyl methacrylate]; details: 2200 nM; in DMSO
Method: (§1)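 BioMAP Diversity Plus panel of 12 human primary cell co-culture systems (3C, 4H, LPS, SAg, BT, BF4T, BE3C, CASM3C, HDF3CGF, KF3CT, MyoF, Mphg). Compounds were added 1 h before stimulation and left for 24 h (MyoF 48 h; BT 72 h for soluble read-outs or 6 d for IgG). Biomarkers were read by ELISA, cytotoxicity by SRB, PBMC viability and proliferation by Alamar Blue. Each well value was divided by the mean of 8 DMSO control wells on the same plate and log10 transformed; duplicate blinded samples were tested at 4 concentrations.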

[2] = compound: C=CC(=O)OCC(F)(F)C(F)(F)C(F)(F)C(F)(F)COC(=O)C=C [1H,1H,6H,6H-Perfluorohexane-1,6-diol diacrylate]; details: 2200 nM; in DMSO
Method: as §1

[3] = compound: FC(F)(F)C(F)(F)C(F)(F)C(F)(F)C(F)(F)C(F)(F)C(F)(F)CCI [1-Iodo-1H,1H,2H,2H-perfluorononane]; details: in DMSO
Method: as §1

[4] = compound: FC(F)(F)C(F)(F)C(F)(F)C(F)(F)C(F)(F)C(F)(F)C(F)(F)I [1-Iodopentadecafluoroheptane]; details: in DMSO
Method: as §1

[5] = compound: FC(F)C(F)(F)COCC1CO1 [((2,2,3,3-Tetrafluoropropoxy)methyl)oxirane]; details: 2200 nM; in DMSO
Method: as §1

Perfluorooctanamide = compound: NC(=O)C(F)(F)C(F)(F)C(F)(F)C(F)(F)C(F)(F)C(F)(F)C(F)(F)F [Perfluorooctanamide]; details: 2200 nM; in DMSO
Method: as §1

Perfluoroundecanoic acid = compound: O=C(O)C(F)(F)C(F)(F)C(F)(F)C(F)(F)C(F)(F)C(F)(F)C(F)(F)C(F)(F)C(F)(F)C(F)(F)F [Perfluoroundecanoic acid]; details: in DMSO
Method: as §1

[6] = compound: O=C(O)C(F)(F)C(F)(F)C(F)(F)C(F)(F)C(F)(F)C(F)(F)C(F)(F)C(F)F [9-H-Perfluorononanoic acid]; details: 2200 nM; in DMSO
Method: as §1

Perfluorobutanoic acid = compound: O=C(O)C(F)(F)C(F)(F)C(F)(F)F [Perfluorobutanoic acid]; details: 2200 nM; in DMSO
Method: as §1

Perfluoropropanoic acid = compound: O=C(O)C(F)(F)C(F)(F)F [Perfluoropropanoic acid]; details: 2200 nM; in DMSO
Method: as §1

[7] = compound: O=C(O)C(F)(F)C(F)(F)OC(F)(F)F [Perfluoro-3-methoxypropanoic acid]; details: 2200 nM; in DMSO
Method: as §1

[8] = compound: O=C(O)C(F)(F)OC(F)(F)C(F)(F)OC(F)(F)C(=O)O [Perfluoro-3,6-dioxaoctane-1,8-dioic acid]; details: 2200 nM; in DMSO
Method: as §1

[9] = compound: O=C(O)C(F)(F)OC(F)(F)C(F)(F)OC(F)(F)C(F)(F)C(F)(F)C(F)(F)F [Perfluoro-3,6-dioxadecanoic acid]; details: 2200 nM; in DMSO
Method: as §1

[10] = compound: O=C(O)C=CC(F)(C(F)(F)F)C(F)(F)F [3-(Perfluoroisopropyl)-2-propenoic acid]; details: in DMSO
Method: as §1

[11] = compound: O=P(O)(O)CCC(F)(F)C(F)(F)C(F)(F)C(F)(F)C(F)(F)C(F)(F)C(F)(F)C(F)(F)F [((Perfluorooctyl)ethyl)phosphonic acid]; details: 2200 nM; in DMSO
Method: as §1

[12] = compound: O=S(=O)(Cl)C(F)(F)C(F)(F)C(F)(F)C(F)(F)C(F)(F)C(F)(F)C(F)(F)C(F)(F)F [Perfluoro-1-octanesulfonyl chloride]; details: 2200 nM; in DMSO
Method: as §1

[13] = compound: OCC(F)(F)C(F)(F)C(F)(F)C(F)(F)C(F)(F)C(F)(F)C(F)(F)C(F)(F)C(F)(F)C(F)(F)C(F)(F)F [11:1 Fluorotelomer alcohol]; details: in DMSO
Method: as §1

[14] = compound: OCCC(F)(F)C(F)(F)C(F)(F)C(F)(F)C(F)(F)C(F)(F)C(F)(F)C(F)(F)F [8:2 Fluorotelomer alcohol]; details: 2200 nM; in DMSO
Method: as §1

Test System | level (log10) [1] | level (log10) [2] | level (log10) ([3]; 740 nM) | level (log10) ([3]; 2200 nM) | level (log10) ([3]; 6700 nM) | level (log10) ([3]; 20000 nM) | level (log10) ([4]; 740 nM) | level (log10) ([4]; 2200 nM) | level (log10) ([4]; 6700 nM) | level (log10) ([4]; 20000 nM) | level (log10) [5] | level (log10) (Perfluorooctanamide) | level (log10) (Perfluoroundecanoic acid; 740 nM) | level (log10) (Perfluoroundecanoic acid; 2200 nM) | level (log10) [6] | level (log10) (Perfluorobutanoic acid) | level (log10) (Perfluoropropanoic acid) | level (log10) [7] | level (log10) [8] | level (log10) [9] | level (log10) ([10]; 2200 nM) | level (log10) ([10]; 6700 nM) | level (log10) ([10]; 20000 nM) | level (log10) ([10]; 60000 nM) | level (log10) [11] | level (log10) [12] | level (log10) ([13]; 370 nM) | level (log10) ([13]; 1100 nM) | level (log10) ([13]; 3300 nM) | level (log10) ([13]; 10000 nM) | level (log10) [14]
KF3CT:IL-1alpha | 0.001 ± 0.028 | -0.007 ± 0.016 | 0.036 ± 0.018 | -0.0025 ± 0.005 | -0.01 ± 0.0071 | 0.019 ± 0.047 | -0.005 ± 0.0071 | -0.001 ± 0.011 | -0.006 ± 0.0042 | -0.004 ± 0.0071 | 0.0085 ± 0.021 | 0.0085 ± 0.011 | 0.005 ± 0.0071 | -0.003 ± 0.0028 | 0.024 ± 0.027 | 0.0205 ± 0.028 | 0.025 ± 0.088 | 0.0045 ± 0.0064 | 0.016 ± 0.0071 | 0.0025 ± 0.04 | 0.0065 ± 0.0035 | -0.0025 ± 0.0064 | 0.0025 ± 0.0092 | 0.001 ± 0.017 | 0.0305 ± 0.00071 | -0.0125 ± 0.025 | -0.012 ± 0.025 | 0.0015 ± 0.028 | -0.0425 ± 0.0064 | -0.021 ± 0.011 | -0.011 ± 0.02
CASM3C:IL-6 | 0.024 ± 0.059 | 0.035 ± 0.1 | 0.0165 ± 0.04 | -0.017 ± 0.0028 | -0.0105 ± 0.013 | 0.0315 ± 0.056 | 0.015 ± 0.02 | 0.032 ± 0.013 | -0.0425 ± 0.026 | -0.0035 ± 0.053 | 0.0115 ± 0.059 | 0.0015 ± 0.0078 | -0.0225 ± 0.032 | -0.0165 ± 0.0035 | 0.0095 ± 0.06 | 0.0125 ± 0.036 | 0.013 ± 0.0014 | 0.03 ± 0.1 | 0.022 ± 0.1 | 0.0265 ± 0.053 | 0.0155 ± 0.046 | -0.035 ± 0.011 | -0.0525 ± 0.00071 | 0.001 ± 0.092 | 0.0185 ± 0.093 | 0.018 ± 0.065 | 0.0085 ± 0.03 | -0.0065 ± 0.00071 | -0.022 ± 0.025 | 0.005 ± 0.02 | 0.0025 ± 0.036
BE3C:Keratin 8/18 | -0.0165 ± 0.026 | 0 ± 0.0099 | -0.011 ± 0.02 | 0.0055 ± 0.013 | -0.005 ± 0.017 | -0.007 ± 0.0085 | 0.001 ± 0.0085 | -0.0045 ± 0.0064 | -0.0075 ± 0.011 | -0.012 | -0.014 ± 0.0071 | -0.0105 ± 0.011 | 0 ± 0.0028 | -0.0045 ± 0.00071 | 0.007 ± 0.0057 | -0.004 ± 0.0057 | -0.0345 ± 0.0035 | -0.001 ± 0.0071 | 0 ± 0.0028 | -0.012 ± 0.0057 | -0.0015 ± 0.028 | 0.0015 ± 0.019 | -0.0065 ± 0.012 | 0.002 ± 0.0028 | -0.003 ± 0.0028 | 0.01 ± 0.02 | 0.0145 ± 0.03 | 0.0065 ± 0.04 | -0.016 ± 0.035 | 0.018 ± 0.025 | -0.004 ± 0.014
SAg:PBMC Cytotoxicity | -0.013 ± 0.059 | -0.03 ± 0.0099 | 0.029 ± 0.0014 | -0.02 ± 0.0042 | -0.005 ± 0.045 | 0.0205 ± 0.035 | 0.0065 ± 0.016 | 0.0155 ± 0.022 | -0.0165 ± 0.028 | 0.0265 ± 0.026 | 0.003 ± 0.014 | 0.0115 ± 0.011 | 0.006 ± 0.013 | 0.006 ± 0.013 | 0.015 ± 0.082 | -0.0075 ± 0.0078 | 0.017 ± 0.047 | 0.018 ± 0.057 | 0.0105 ± 0.044 | 0.005 ± 0.016 | 0.003 ± 0.055 | -0.0035 ± 0.0078 | 0.0015 ± 0.0035 | -0.005 ± 0.017 | -0.0205 ± 0.059 | -0.003 ± 0.038 | -0.102 ± 0.023 | -0.233 ± 0.016 | -0.266 ± 0.02 | -0.268 ± 0.076 | -0.008 ± 0.027
